Reference: PMC10912199
Results are given in words; binding and its absence hold for the method and conditions named. Binding seen in cells or lysates may run through a third protein.

Chains of the proteins cited; added tags and fusions are not shown.
UniProt Q13547: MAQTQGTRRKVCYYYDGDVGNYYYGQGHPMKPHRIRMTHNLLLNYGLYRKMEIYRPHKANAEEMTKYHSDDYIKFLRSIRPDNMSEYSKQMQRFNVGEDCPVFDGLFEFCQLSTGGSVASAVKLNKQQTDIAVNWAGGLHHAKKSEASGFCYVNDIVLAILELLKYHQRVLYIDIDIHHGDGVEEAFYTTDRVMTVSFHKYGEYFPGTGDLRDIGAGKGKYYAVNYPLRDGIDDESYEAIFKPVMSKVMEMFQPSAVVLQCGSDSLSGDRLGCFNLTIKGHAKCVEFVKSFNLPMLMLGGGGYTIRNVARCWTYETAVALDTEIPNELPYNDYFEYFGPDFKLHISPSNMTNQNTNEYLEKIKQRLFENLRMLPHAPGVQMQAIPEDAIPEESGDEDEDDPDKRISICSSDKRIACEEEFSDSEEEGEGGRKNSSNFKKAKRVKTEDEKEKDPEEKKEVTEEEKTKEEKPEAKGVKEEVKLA

Target: histone deacetylase 1 (HDAC1) (human (endogenous in CRC cells)) (UniProt Q13547)
Assay: co-IP; Pierce immunoprecipitation kit; HDAC1 primary antibody (10 µg) cross-linked to AminoLink coupling resin; proteins extracted from CRC cells incubated with the resin for 2 h at room temperature; eluate detected by Western Blot

B1: Potassium Channel Tetramerization Domain Containing 15 (KCTD15) (protein, UniProt Q96SI1 1-283)
chain: MPHRKERPSGSSLHTHGSTGTAEGGNMSRLSLTRSPVSPLAAQGIPLPAQLTKSNAPVHIDVGGHMYTSSLATLTKYPDSRISRLFNGTEPIVLDSLKQHYFIDRDGEIFRYVLSFLRTSKLLLPDDFKDFSLLYEEARYYQLQPMVRELERWQQEQEQRRRSRACDCLVVRVTPDLGERIALSGEKALIEEVFPETGDVMCNSVNAGWNQDPTHVIRFPLNGYCRLNSVQVLERLFQRGFSVAASCGGGVDSSQFSEYVLCREERRPQPTPTAVRIKQEPLD
In the case of B1, the binding is reported as “no binding”.
